Measurements reported in PubChem BioAssay AID1159578 (Peter MacCallum Cancer Centre, 2015)

- Screen: 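siRNA pools altering how lymphatic endothelial cells close a scratch wound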 (primary screen)
- Cell system: human lymphatic endothelial cells
- Reagent: siRNA pool against human genes, 40 nM
- Time to read-out: 48 h after transfection
- Read-out: 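Cells stained with dye and imaged after a scratch; covered wound area and nuclei counted, duplicates averaged, migration set against mock wells and turned into a robust z-score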
- Reading the numbers: migration robust z-score: higher = faster migration into the scratch; nuclei per well: higher = more cells in the well
- Active means: 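Pools averaging fewer than 3300 nuclei are never called; remaining pools count as changed when migration robust z lies outside -2 to 2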
- Calls: active = migration changed; inactive = no migration change, or too few cells
Shown is an unselected part of about 18,000 reagents. Of all reagents, about 1,030 (5.7%) got an active call. 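Inactive calls also include pools with fewer than 3300 nuclei, whose migration was not assessed.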 Raw values are not corrected between plates. A number with no mark means an inactive call. Further read-outs or replicates are left out here.

Depletion of EXOSC2 gave: migration robust z-score -0.26; migration class with cell-count check migration z between -2 and 2; enough cells; nuclei per well, duplicate mean 5742.
Silencing of MARCHF9 gave: migration robust z-score -0.54; migration class with cell-count check migration z between -2 and 2; enough cells; nuclei per well, duplicate mean 5584.
After knock-down of JUNB the results were migration robust z-score -0.6; migration class with cell-count check migration z between -2 and 2; enough cells; nuclei per well, duplicate mean 6380.
Against PAGE5, the values are migration robust z-score 0.11; migration class with cell-count check migration z between -2 and 2; enough cells; nuclei per well, duplicate mean 4802.
TMEM232 gave migration robust z-score 1.54; migration class with cell-count check migration z between -2 and 2; enough cells; nuclei per well, duplicate mean 6084.
ZYX showed migration robust z-score -1.12; migration class with cell-count check migration z between -2 and 2; enough cells; nuclei per well, duplicate mean 4735.
With knock-down of FAHD1, the screen gave migration robust z-score 0.36; migration class with cell-count check migration z between -2 and 2; enough cells; nuclei per well, duplicate mean 6506.
After knock-down of STAT5B the results were migration robust z-score 0.94; migration class with cell-count check migration z between -2 and 2; enough cells; nuclei per well, duplicate mean 6330.
Depletion of AARS2 resulted in: migration robust z-score 0.97; migration class with cell-count check migration z between -2 and 2; enough cells; nuclei per well, duplicate mean 6701.

3 entries from above, showing only “nuclei per well, duplicate mean”.
FAHD1 = 6506
STAT5B = 6330
AARS2 = 6701

Further results follow:
With knock-down of EXOG the results were migration robust z-score 0.75; migration class with cell-count check migration z between -2 and 2; enough cells; nuclei per well, duplicate mean 3672.
Against DCC, the entry reads migration robust z-score -0.44; migration class with cell-count check migration z between -2 and 2; enough cells; nuclei per well, duplicate mean 5650.
After knock-down of CDH23 the results were migration robust z-score 0.26; migration class with cell-count check migration z between -2 and 2; enough cells; nuclei per well, duplicate mean 6104.
After knock-down of TSPAN14 the results were migration robust z-score -0.6; migration class with cell-count check migration z between -2 and 2; enough cells; nuclei per well, duplicate mean 5554.
After knock-down of LCNL1, the screen gave migration robust z-score -0.76; migration class with cell-count check migration z between -2 and 2; enough cells; nuclei per well, duplicate mean 4960.
Knock-down of CELSR3 came out at: migration robust z-score -0.62; migration class with cell-count check migration z between -2 and 2; enough cells; nuclei per well, duplicate mean 5395.
Depletion of NSUN7 gave: migration robust z-score 0.95; migration class with cell-count check migration z between -2 and 2; enough cells; nuclei per well, duplicate mean 4311.
Silencing of OPN5 came out at: migration robust z-score 0.8; migration class with cell-count check migration z between -2 and 2; enough cells; nuclei per well, duplicate mean 6134.
For VGLL2 the deposit lists migration robust z-score -2.29 (active); migration class with cell-count check migration z below -2; enough cells; nuclei per well, duplicate mean 3488.
COA1 scored migration robust z-score -1.88; migration class with cell-count check migration z between -2 and 2; enough cells; nuclei per well, duplicate mean 6261.
With knock-down of TROAP, the record shows migration robust z-score 0.36; migration class with cell-count check migration z between -2 and 2; enough cells; nuclei per well, duplicate mean 5538.
With knock-down of SUZ12, the record shows migration robust z-score -1.84; migration class with cell-count check migration z between -2 and 2; enough cells; nuclei per well, duplicate mean 4272.
